Some entries share one result that the patent states for a list of compounds.
Tested on: syngeneic Panc02 pancreas tumor
Experiment: Panc02 mouse pancreatic cancer model, intradermal syngeneic tumor growth
Type: in vivo, C57BL/6 mice
Settings: FIG. 2; gemcitabine alone; day 23, 25 and 37

`Nc1ccn([C@@H]2O[C@H](CO)[C@@H](O)C2(F)F)c(=O)n1` [Gemcitabine] was tested, and the T/C was < 40%.

— patent publication US8946190B2, “Medium-chain length fatty acids, salts and triglycerides in combination with gemcitabine for treatment of pancreatic cancer” (priority 2007, dated 2015)
